Results are given in words; binding and its absence hold for the method and conditions named. In cells and extracts the contact can be indirect. Some entries that bind do so weakly or less than the wild type.
Legend:
[1] = biological target: ATM protein kinase (human (endogenous in G361)) (UniProt Q13315); assay: co-IP; ATM immunoprecipitated from G361 nuclear extracts with anti-ATM monoclonal SYR 10G3/1 on protein A-Sepharose, blot for PARP-1; cells untreated or treated with 10 Gy IR or 2 mM MNU for 30 min; HT144 (ATM deficient) as negative control
[2] = biological target: ATM protein kinase (human (endogenous in G361)) (UniProt Q13315); assay: co-IP; co-immunoprecipitation in the presence of ethidium bromide (not shown)

The chains behind the UniProt entries cited, without tags or fusion partners.
UniProt Q13315: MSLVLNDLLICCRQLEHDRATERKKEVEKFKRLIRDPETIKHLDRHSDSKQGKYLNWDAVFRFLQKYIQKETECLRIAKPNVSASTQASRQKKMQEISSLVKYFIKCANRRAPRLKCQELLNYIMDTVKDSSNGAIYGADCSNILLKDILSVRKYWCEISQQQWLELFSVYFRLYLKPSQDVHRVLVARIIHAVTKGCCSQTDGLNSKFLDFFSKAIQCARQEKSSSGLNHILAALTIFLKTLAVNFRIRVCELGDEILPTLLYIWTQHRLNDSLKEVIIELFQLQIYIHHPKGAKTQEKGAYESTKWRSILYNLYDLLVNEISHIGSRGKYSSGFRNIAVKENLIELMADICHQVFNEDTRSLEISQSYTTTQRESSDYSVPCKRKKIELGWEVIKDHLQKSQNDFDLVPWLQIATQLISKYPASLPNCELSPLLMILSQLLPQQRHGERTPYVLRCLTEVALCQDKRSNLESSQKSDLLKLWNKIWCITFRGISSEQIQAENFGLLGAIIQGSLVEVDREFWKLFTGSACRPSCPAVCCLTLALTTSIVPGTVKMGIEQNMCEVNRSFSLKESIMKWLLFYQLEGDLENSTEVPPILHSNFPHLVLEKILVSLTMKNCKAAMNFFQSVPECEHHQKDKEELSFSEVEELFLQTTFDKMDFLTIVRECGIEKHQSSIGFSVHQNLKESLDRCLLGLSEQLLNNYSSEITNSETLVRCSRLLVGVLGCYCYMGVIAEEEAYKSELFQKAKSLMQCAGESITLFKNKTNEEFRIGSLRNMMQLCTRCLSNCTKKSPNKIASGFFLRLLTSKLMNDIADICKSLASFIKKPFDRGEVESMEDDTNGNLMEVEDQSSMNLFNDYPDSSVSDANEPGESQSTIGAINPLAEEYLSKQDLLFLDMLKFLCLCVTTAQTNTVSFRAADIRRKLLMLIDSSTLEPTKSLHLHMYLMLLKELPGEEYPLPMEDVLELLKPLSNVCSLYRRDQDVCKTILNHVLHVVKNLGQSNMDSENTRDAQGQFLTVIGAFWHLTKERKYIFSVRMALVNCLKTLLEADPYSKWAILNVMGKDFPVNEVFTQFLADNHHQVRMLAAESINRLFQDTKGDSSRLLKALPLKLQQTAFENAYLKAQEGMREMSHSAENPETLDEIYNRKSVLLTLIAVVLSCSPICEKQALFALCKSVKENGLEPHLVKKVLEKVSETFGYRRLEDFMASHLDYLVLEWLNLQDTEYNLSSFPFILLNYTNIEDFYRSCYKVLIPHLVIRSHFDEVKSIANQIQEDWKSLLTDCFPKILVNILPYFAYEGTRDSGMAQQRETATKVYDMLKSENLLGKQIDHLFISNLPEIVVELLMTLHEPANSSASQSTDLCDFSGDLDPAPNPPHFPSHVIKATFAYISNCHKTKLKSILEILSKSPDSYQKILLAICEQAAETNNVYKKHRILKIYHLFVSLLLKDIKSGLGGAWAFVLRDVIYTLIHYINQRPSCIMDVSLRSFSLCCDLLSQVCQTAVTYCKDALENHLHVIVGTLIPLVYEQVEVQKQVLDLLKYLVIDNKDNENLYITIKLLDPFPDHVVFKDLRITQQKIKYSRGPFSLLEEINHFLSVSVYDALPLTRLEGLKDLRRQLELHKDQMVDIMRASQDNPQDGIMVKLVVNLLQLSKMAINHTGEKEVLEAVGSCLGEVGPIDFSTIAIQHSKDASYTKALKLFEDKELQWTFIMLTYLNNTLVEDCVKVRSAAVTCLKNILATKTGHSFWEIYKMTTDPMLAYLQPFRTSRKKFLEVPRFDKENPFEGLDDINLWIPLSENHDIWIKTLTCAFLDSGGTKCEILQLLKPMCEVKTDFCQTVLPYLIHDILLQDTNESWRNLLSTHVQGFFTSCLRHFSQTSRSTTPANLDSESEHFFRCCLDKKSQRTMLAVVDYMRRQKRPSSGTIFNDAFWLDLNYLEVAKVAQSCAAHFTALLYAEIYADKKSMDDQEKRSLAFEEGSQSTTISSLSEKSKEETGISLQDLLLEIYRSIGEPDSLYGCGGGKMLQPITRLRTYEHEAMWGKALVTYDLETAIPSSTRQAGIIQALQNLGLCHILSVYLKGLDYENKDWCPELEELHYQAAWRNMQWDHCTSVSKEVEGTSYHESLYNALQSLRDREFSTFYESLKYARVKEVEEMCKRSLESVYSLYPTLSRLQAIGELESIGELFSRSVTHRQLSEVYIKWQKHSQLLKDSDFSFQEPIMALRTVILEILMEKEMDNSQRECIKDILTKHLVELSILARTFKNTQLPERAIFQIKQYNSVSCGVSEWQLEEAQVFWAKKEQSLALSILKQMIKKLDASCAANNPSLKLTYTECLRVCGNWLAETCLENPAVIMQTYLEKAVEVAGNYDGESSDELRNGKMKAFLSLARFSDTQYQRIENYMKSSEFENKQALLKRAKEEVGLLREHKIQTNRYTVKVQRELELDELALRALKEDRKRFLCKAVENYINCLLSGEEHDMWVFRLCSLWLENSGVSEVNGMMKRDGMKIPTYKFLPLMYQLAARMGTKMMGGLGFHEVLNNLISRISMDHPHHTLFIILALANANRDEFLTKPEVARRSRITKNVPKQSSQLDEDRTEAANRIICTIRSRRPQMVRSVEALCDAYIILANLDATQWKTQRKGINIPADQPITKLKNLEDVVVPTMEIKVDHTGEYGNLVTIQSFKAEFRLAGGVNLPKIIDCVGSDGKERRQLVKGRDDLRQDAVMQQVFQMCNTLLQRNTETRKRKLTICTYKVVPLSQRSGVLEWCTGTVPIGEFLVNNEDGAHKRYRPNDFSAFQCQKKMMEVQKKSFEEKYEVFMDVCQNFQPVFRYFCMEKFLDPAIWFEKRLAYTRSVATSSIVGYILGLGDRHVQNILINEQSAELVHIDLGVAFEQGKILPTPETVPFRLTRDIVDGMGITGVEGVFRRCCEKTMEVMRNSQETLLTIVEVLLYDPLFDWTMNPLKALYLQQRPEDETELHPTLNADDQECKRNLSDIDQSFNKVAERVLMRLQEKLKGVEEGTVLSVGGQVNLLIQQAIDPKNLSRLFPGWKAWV
UniProt P09874: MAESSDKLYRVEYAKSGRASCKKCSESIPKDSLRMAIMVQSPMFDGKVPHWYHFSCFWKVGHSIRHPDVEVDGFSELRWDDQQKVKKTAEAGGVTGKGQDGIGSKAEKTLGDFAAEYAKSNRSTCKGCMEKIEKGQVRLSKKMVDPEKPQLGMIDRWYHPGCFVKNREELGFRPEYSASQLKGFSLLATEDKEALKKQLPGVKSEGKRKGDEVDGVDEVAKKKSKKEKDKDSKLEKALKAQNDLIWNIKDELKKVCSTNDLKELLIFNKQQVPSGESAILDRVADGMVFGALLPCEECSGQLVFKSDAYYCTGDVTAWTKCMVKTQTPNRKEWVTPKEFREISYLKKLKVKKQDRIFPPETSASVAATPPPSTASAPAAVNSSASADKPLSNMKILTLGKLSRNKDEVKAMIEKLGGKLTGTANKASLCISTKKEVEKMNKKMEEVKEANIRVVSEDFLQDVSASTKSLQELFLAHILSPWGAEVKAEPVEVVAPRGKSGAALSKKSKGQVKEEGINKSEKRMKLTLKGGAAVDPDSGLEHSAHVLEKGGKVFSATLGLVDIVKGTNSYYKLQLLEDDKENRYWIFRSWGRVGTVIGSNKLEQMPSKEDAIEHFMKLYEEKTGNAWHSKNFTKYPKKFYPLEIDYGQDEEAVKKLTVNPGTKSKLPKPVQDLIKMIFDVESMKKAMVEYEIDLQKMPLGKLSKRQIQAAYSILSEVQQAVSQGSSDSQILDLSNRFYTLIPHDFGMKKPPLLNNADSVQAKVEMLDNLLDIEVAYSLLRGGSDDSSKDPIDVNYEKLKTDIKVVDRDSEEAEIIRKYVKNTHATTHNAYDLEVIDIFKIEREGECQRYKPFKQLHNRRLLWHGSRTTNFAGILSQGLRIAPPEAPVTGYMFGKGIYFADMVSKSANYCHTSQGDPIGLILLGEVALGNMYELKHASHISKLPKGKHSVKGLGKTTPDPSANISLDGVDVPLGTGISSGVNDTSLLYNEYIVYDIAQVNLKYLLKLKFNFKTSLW

binding [1]: binds | binding [2]: binds
Substance: Poly(ADP-ribose) polymerase (PARP-1) (from UniProt P09874 1-1014)

Reference: PMC1868035
